The record followed here is PubChem BioAssay AID2685 (National Center for Advancing Translational Sciences (NCATS), 2010).

As a reminder, the AC50 is the midpoint of the concentration-response curve, whichever way the signal moves. Low values mean activity at low concentration, high ones activity only at high concentration.

The assay can be described thus: qHTS Assay for Lipid Storage Modulators in Drosophila S3 Cells.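 As to cell number change: cells counted by Cell Tracker Red CMTPX staining in the red channel.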 To be noted: BODIPY lipid droplet fluorescence, 18-24 h; for cell number change: measured here: cell count max response, cells fed with added oleic acid. Summed up:
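Laser-scanning cytometry quantifies lipid droplet accumulation (500–530 nm total intensity; droplet/cell object ratio) in oleic acid-fed (400 uM added) Drosophila S3 cells treated with a concentration series. 20 uM Triacsin C defined 100% inhibition.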
Background: qHTS replaces the single test concentration by a dilution series.

[1] abbreviates: measured here: cell number channel AC50, cells fed with added oleic acid.
Setting [2] is: measured here: lipid fluorescence (Fed channel) AC50, cells fed with added oleic acid.

The list shows a part of the results. Further columns of the screen follow, without active or inactive calls. Compounds called inactive in the main read-out are mostly missing here. Potencies come from curve fits of mixed quality, noted in brackets.

Take `CCOc1ncccc1C(=O)Nc1nnc(C2CC2)s1`: the AC50 under setting [1] is 0.146 µM [rising, single point].

For the compound `Cc1onc(-c2c(F)cccc2Cl)c1C(=O)Nc1sc2c(c1C(N)=O)CCC2`, the cell number change is -0.594%. Further, the AC50 under setting [2] was 6.51 µM [rising, single point]. For the compound `C[C@]12CCC(=O)C=C1[C@H](O)C[C@@H]1[C@@H]2[C@@H](O)C[C@@]2(C)[C@H]1CC[C@]2(O)C(=O)CO`, the cell number change was 10.5%. Also, the AC50 under setting [2] is 6.51 µM [falling, single point]. With `CCC1C2CN(C(C)=O)CC=C2C(C#N)=C(N)C1(C#N)C#N` (stereo not given), the cell number change is -9.39%. Also, under setting [2], the AC50 is 14.6 µM [rising, single point]. Take `CCOC(=O)c1sc(NC(=O)CCN2CC(C)OC(C)C2)c(C(=O)OCC)c1C` (stereo not given): the half-maximal activity concentration (AC50) is, setting by setting: under setting [1], 0.231 µM [rising, full curve, poor fit]; under setting [2], 1.16 µM [rising, full curve]. `O=C(Nc1cccc(S(=O)(=O)C(F)F)c1)c1ccc(S(=O)(=O)N2CCOCC2)cc1`: the cell number change is -13%. Same read-out and setting: under `CCOC(=O)c1sc2nc3c(cc2c1N)COC(C)(CC)C3` (stereo not given) stands 20.2%. In the case of `COC(=O)c1cnc(N2CCCN(S(=O)(=O)c3ccc(C(F)(F)F)cc3)CC2)nc1C(F)(F)F`, the cell number change is -30.4%. Moreover, the AC50 under setting [1] was 0.058 µM [falling, full curve, poor fit]. Further, the AC50 under setting [2] was 18.4 µM [falling, partial curve]. For `O=C(C1CCCCC1)N1CCN=C1SCc1cccc([N+](=O)[O-])c1`, the cell number change was -15%. For the compound `Cc1ccc(Cn2c(-c3nonc3N)nc3ccccc32)cc1`, the cell number change is -6.56%. In addition, the AC50 under setting [1] was 0.411 µM [falling, single point].

Turning to `COc1cccc(-c2nc(-c3ccccn3)no2)c1OC`, the AC50 under setting [1] is 1.03 µM [rising, full curve] and the AC50 under setting [2] was 2.31 µM [rising, partial curve].

As to `CC(C)OC(=O)CSc1nnc(-c2cnccn2)n1-c1ccc(Cl)cc1`, the cell number change was -33.2%. In addition, the AC50 under setting [1] was 23.1 µM [falling, single point]. In addition, under setting [2], the half-maximal activity concentration (AC50) was 29.1 µM [falling, single point]. Regarding `Clc1ccc(-c2cnc3n2CCCCC3)cc1`, the cell number change was -4.42%. Moreover, the AC50 under setting [1] is 0.461 µM [falling, single point]. For the compound `Cc1csc2c(N3CCN(C(=O)Nc4ccc(Cl)c(Cl)c4)CC3)ncnc12`, the cell number change is 22.4%. Further, the AC50 under setting [2] was 23.1 µM [rising, single point]. Take `Brc1ccc(C2=Nn3c(nnc3-c3n[nH]c4c3CCC4)SC2)cc1`: the cell number change is -22.8%. The AC50 under setting [2] was 20.6 µM [rising, partial curve]. Turning to `CCN(CC)c1ccc(C2C3CCCCC3(O)CCN2CC(=O)Nc2ccccc2)cc1` (stereo not given), the cell number change is 5.97%. The AC50 under setting [2] is 14.6 µM [rising, partial curve].
